According to paper PMC8191779, “Hinge like domain motion facilitates human RBMS1 protein binding to proto-oncogene c-myc promoter”:
For part of these data: No signal at the amounts used counts as a negative. For part of these data: Construct, isoform or probe ends are uncertain for at least one entry. For part of these data: Weaker means in comparison with the reference protein, sequence or condition of that experiment. For part of these data: At least one verdict was read from the data and is not stated in words by the source.

Amino acid sequences for entries named in this document (tags omitted). Residues count along the entry.
UniProt P29558, 58-224 Y105S: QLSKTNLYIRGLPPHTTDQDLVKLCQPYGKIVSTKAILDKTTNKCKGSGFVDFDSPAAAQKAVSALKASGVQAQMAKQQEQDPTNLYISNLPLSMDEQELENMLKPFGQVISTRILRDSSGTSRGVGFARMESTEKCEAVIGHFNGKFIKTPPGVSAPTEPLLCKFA
UniProt P29558, 138-224: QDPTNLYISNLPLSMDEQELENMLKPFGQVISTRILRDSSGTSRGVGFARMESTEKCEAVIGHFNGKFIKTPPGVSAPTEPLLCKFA
UniProt P29558, 58-224 F107L: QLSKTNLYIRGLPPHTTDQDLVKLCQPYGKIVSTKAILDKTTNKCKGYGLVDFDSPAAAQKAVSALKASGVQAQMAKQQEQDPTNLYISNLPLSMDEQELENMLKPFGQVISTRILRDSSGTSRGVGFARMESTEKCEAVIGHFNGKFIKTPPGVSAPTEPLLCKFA

Columns and labels:
Assay in all cases: ITC
[1] = target: RBMS1 Y105S (Homo sapiens) (UniProt P29558); conditions: ITC: 20 mM sodium phosphate pH 7.1, 50 mM NaCl, 303 K, 0.1 mM protein in cell, 1-1.5 mM DNA in syringe; recombinant protein; residues 58-224; protein details: 6xHis removed by TEV; single-stranded DNA
[2] = target: RBMS1 RRM2 (Homo sapiens) (UniProt P29558); conditions: ITC: 20 mM sodium phosphate pH 7.1, 50 mM NaCl, 303 K, 0.1 mM protein in cell, 1-1.5 mM DNA in syringe; recombinant protein; residues 138-224; protein details: 6xHis removed by TEV; single-stranded DNA
[3] = target: RBMS1 F107L (Homo sapiens) (UniProt P29558); conditions: ITC: 20 mM sodium phosphate pH 7.1, 50 mM NaCl, 303 K, 0.1 mM protein in cell, 1-1.5 mM DNA in syringe; recombinant protein; residues 58-224; protein details: 6xHis removed by TEV; single-stranded DNA

TCTTATT [c-myc consensus TCTTATT]: binds more weakly [1]; no binding [2]; binds more weakly [3].
